These results are taken from article PMC7862700.

This is a selection; strong and weak results do not stand in their true shares. At the low end of the ranking, values are background and their order means little.

The assay deals with T1, ELF3 (UniProt P78545).
T1 sequence: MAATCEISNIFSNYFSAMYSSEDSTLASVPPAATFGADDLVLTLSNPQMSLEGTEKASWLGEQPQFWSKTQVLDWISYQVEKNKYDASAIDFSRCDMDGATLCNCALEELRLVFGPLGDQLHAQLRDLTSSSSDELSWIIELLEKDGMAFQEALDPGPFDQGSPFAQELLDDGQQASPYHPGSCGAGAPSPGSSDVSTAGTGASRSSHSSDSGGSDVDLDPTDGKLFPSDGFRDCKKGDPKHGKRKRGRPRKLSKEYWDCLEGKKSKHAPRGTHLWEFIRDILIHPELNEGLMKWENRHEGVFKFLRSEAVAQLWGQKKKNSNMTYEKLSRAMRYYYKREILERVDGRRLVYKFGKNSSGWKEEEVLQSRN
Put plainly: DAPPL (digital affinity profiling via proximity ligation, sequencing). To be noted: 10 mM Tris-HCl pH 7.5, 50 mM NaCl, 1 mM DTT, 4% glycerol, room temperature, 30 min; GST-TFs on glutathione beads, 16-mer random dsDNA library, 0.1% …; high values mean tight binding; double strand, one strand shown; scale: fold enrichment (6-mer frequency, TF over GST control).
For CATCGC, the binding signal worked out at 0.942. GATGTT yielded a binding signal of 1.22. In turn, CCTTGC returned a binding signal of 1.49.

The sequence GTCCCG showed a binding signal of 1.26. As for GCTTGT, the figure is 1.09. The sequence ACACTG yielded a binding signal of 0.911. For the sequence CTATGC, the binding signal worked out at 1.2. As for CTTCCA, the figure is 1.49. TGTAAG: the binding signal was determined as 1.3.

For TGCCCA, the binding signal turned out to be 0.987. In turn, GGGAAA showed a binding signal of 1.03. CATGTA came in with a binding signal of 1.03.

TTACGG gave a binding signal of 1.35. Take AAGAAC: the binding signal was determined as 1.16. The result for CGTACG reads 1.01. Regarding CTAGAA, the binding signal stood at 1.03. The result for TTCCAT reads 1.2. Sequence AAGGGC registered a binding signal of 0.954. GGGCTC registered a binding signal of 1.19. For the sequence TTCCCA, the binding signal was determined as 1.27.

As for GTACCT, the binding signal turned out to be 1.57.

TCGCCC: the binding signal was 1.22.

As for TAAAAA, the binding signal is 1.33. With GATAAT, the binding signal was found to be 0.903.

For ATTGTC, the binding signal was 0.879. The result for TAACGG reads 0.946; that for TGCATT, 1.49; that for TTGAAA, 1.13. Consider TATAAA, for which the binding signal stood at 1.33. CCTCGC: the binding signal worked out at 1.56.

For TGGGGT, the binding signal was determined as 0.976. As for CAACGA, the figure is 1.08; as for TTGTTT, 1.61. Take CTGGGC: the binding signal was determined as 0.819. Regarding GGAAGT, the binding signal worked out at 3.25. For GCACGA, the binding signal is 1.16. Consider TTGGTT, for which the binding signal was 1.23. The result for GGCACT reads 1.29; that for AAGTAG, 1.31.
